According to PMC11695783 (Frontiers in Pharmacology, 2024):

Test system: Mycoplasma pneumoniae strain M129 (ATCC 29342)
Experiment: Time-kill curves
Assay type: cell-based
Settings: 72 h
Method: Mycoplasma pneumoniae strain M129 (ATCC 29342) was obtained from American Type Culture Collection (Manassas, VA, United States) and cultured at 37°C in the presence of 5% CO2 in the modified SP-4 liquid medium (pH 7.4) containing 2.1% (w/v) CM1166 mycoplasma broth base medium (Oxoid, Hants, United Kingdom), 20% (v/v) fetal bovine serum (FBS, Bioexplorer, CO, United States), 0.4% yeast extract (Oxoid), 0.55% (w/v) CMRL 1066 w/L-glutamine culture media powder (MyBioSource, San Diego, CA, United States), 1% D-glucose (Macklin) and 0.004% phenol red (Macklin). […] The solid medium is based on the above formula with the addition of 1% agar, and the characteristic fried egg-like colonies were used for experiments following incubation for 7 d on plates.
The tubes were incubated at 37°C in 5% CO2 for 72 h, and 200 µL of the culture was removed every 12 h for 10-fold serial dilutions. The diluted cultures were plated on plates for further culture and counted after 7 d. The experiment was repeated three times.

With `O=C(O)c1cn(C2CC2)c2cc(N3CCNCC3)c(F)cc2c1=O` [ciprofloxacin] the “concentration at which bactericidal effect was achieved” value (static time-kill) was at least 8 × MIC and the “reduction of bacterial counts” value (≥ 8×MIC) was 3.44 log10 CFU/mL.
